PubChem BioAssay AID1159584 – Peter MacCallum Cancer Centre – 2016
Here is an unselected part of about 18,000 reagents tested. No sequences are given here. The record does not give: the amount of reagent, the time to read-out.

Screen: 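Knock-downs that harm CDH1-null cells more than parental MCF10A cells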 (primary screen)
Cell system: human MCF10A breast epithelial cells, parental and CDH1-null
Reagents: siRNA against human genes
Measurement: 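Cell viability by CellTiter-Glo ATP luminescence, each line scaled to the mean of mock wells across plates, then CDH1-null over parental ratio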
Scale: CDH1-null / parental viability ratio: higher = CDH1-null cells survive relatively better than parental; CDH1-null viability vs mock: higher = more viable CDH1-null cells; parental viability vs mock: higher = more viable parental cells

gene,CDH1-null / parental viability ratio,CDH1-null viability vs mock (fraction of mock),parental viability vs mock (fraction of mock)
POSTN (GeneID 10631),1.17,1.02,0.87
FOXN3 (GeneID 1112),0.93,0.8,0.86
DRG1 (GeneID 4733),1.15,0.98,0.85
CD4 (GeneID 920),0.92,0.73,0.79
CUEDC1 (GeneID 404093),1.28,0.95,0.74
CCDC71L (GeneID 168455),0.76,0.62,0.82
TIPRL (GeneID 261726),1.01,0.85,0.84
GDF10 (GeneID 2662),0.71,0.45,0.63
RASA4 (GeneID 10156),1.03,0.89,0.86
PAM16 (GeneID 51025),0.8,0.7,0.87
GINS1 (GeneID 9837),0.78,0.76,0.98
AP3B1 (GeneID 8546),0.78,0.5,0.64
NEDD8 (GeneID 4738),1.13,1.08,0.96
RREB1 (GeneID 6239),0.91,0.6,0.66
RNF44 (GeneID 22838),0.95,1.01,1.06
ZNF557 (GeneID 79230),1.11,1.02,0.92
SLC26A2 (GeneID 1836),1.01,0.87,0.86
CRYBA2 (GeneID 1412),0.93,0.71,0.76
PRSS12 (GeneID 8492),1.28,0.64,0.5
KRT18P55 (GeneID 284085),1.31,0.55,0.42
MYPN (GeneID 84665),1.45,1.16,0.8
SFRP4 (GeneID 6424),0.78,0.61,0.78
SOCS7 (GeneID 30837),0.98,0.8,0.82
USP21 (GeneID 27005),1.56,0.5,0.32
VANGL2 (GeneID 57216),0.86,0.62,0.72
RAB11FIP2 (GeneID 22841),0.93,0.62,0.67
MGAT4C (GeneID 25834),0.9,0.79,0.88
DCTD (GeneID 1635),1.19,1.02,0.86
AHSP (GeneID 51327),1.03,0.37,0.36
EFCAB14 (GeneID 9813),0.91,0.31,0.34
REPS2 (GeneID 9185),1.12,0.46,0.41
PAQR4 (GeneID 124222),1.07,0.96,0.9
ACHE (GeneID 43),0.74,0.75,1.02
SUGCT (GeneID 79783),1.07,0.62,0.58
SPEM2 (GeneID 201243),1,1,1
AIFM2 (GeneID 84883),0.82,0.49,0.6
CLIC3 (GeneID 9022),1.24,1.09,0.88
MED7 (GeneID 9443),1.06,0.5,0.47
SLC25A31 (GeneID 83447),1.09,1.02,0.94
RMND5B (GeneID 64777),1.45,0.96,0.66
EOLA2 (GeneID 541578),1.05,0.88,0.84
TMC6 (GeneID 11322),1.13,0.7,0.62
ENPP2 (GeneID 5168),0.82,0.62,0.76
MPND (GeneID 84954),0.81,0.5,0.62
LPAR2 (GeneID 9170),0.84,0.74,0.88
VAPA (GeneID 9218),1.04,0.76,0.73
CPN2 (GeneID 1370),1.07,0.98,0.92
GPR35 (GeneID 2859),1.32,0.82,0.62
DDX24 (GeneID 57062),0.99,0.66,0.67
HS3ST6 (GeneID 64711),0.78,0.65,0.83
MRGPRG (GeneID 386746),0.83,0.78,0.94
FUT2 (GeneID 2524),0.85,0.68,0.8
BRD9 (GeneID 65980),1.01,0.93,0.92
MREG (GeneID 55686),0.94,1.27,1.35
TNR (GeneID 7143),1.08,0.93,0.86
ETHE1 (GeneID 23474),0.98,0.86,0.88
LRSAM1 (GeneID 90678),1.11,1.04,0.94
THRAP3 (GeneID 9967),1.05,1,0.95
AHI1 (GeneID 54806),1.06,0.66,0.62
COPS7A (GeneID 50813),1.04,0.88,0.85
ARB2A (GeneID 83989),1.06,0.9,0.85
OR2B11 (GeneID 127623),1.08,0.69,0.64
FNDC1 (GeneID 84624),0.7,0.42,0.6
SCOC (GeneID 60592),0.72,0.71,0.98
KCNJ2 (GeneID 3759),1.22,1,0.82
EIF5A (GeneID 1984),1.16,1.09,0.94
OR2T4 (GeneID 127074),0.85,0.66,0.78
GSTK1 (GeneID 373156),0.93,0.8,0.86
